According to PubChem BioAssay AID330 (DTP/NCI, 2004):
The list is a part of this screen's results and no random one: it is rich in T/C values a quarter to a half above the control, in often repeated tests (any T/C) and in doses without a T/C. Other doses and runs of a compound stand elsewhere. T/C: endpoint of the treated group in % of that of the vehicle group. Some entries give survivors of the animals treated and no T/C: the source holds a T/C of zero for them, seemingly a mark for toxic or unscored doses. Some doses without a T/C left all or most animals alive at the check, yet need not have been tolerated: survival well below the control is almost never listed, so the zero probably covers shortened survival too. Survivors were counted at the toxicity check, usually on the fifth day, unless a day is given; later deaths do not show. Schedule codes are those of the source, read here as Q, the interval in days (D) or hours (H), X, the number of doses. Some doses were run more than once; the results are listed from low to high. Where survival is the endpoint, the PubChem record calls one and a half times the control and up active, and a quarter to a half above the control has no call in these data; cut-offs in other NCI protocols can differ. Some T/C values carry the count of animals alive at the toxicity check (mostly the fifth day); without a count, all were alive then. Brackets with × give the number of equal values in this list.

Tested on: P388 leukemia ip, CD2F1 mice, survival T/C
Assay: NCI In Vivo Anticancer Drug Screen. Data for tumor model P388 Leukemia (intraperitoneal) in CD2F1 (CDF1) mice
Details: T/C endpoint: median survival time, higher T/C = longer survival
[1] = dose: 12.5 mg/kg/injection, schedule: Q01DX005 (ip), vehicle: Klucel (hydroxypropylcellulose) (HPC)
[2] = dose: 25.0 mg/kg/injection, schedule: Q01DX005 (ip), vehicle: Klucel (hydroxypropylcellulose) (HPC)
[3] = dose: 50.0 mg/kg/injection, schedule: Q01DX005 (ip), vehicle: Klucel (hydroxypropylcellulose) (HPC)
[4] = dose: 100.0 mg/kg/injection, schedule: Q01DX005 (ip), vehicle: Klucel (hydroxypropylcellulose) (HPC)
[5] = dose: 200.0 mg/kg/injection, schedule: Q01DX005 (ip), vehicle: Klucel (hydroxypropylcellulose) (HPC)
[6] = dose: 100.0 mg/kg/injection, schedule: Q01DX009 (ip), vehicle: saline with Tween-80
[7] = dose: 200.0 mg/kg/injection, schedule: Q01DX009 (ip), vehicle: saline with Tween-80
[8] = dose: 8.0 mg/kg/injection, schedule: Q01DX009 (ip), vehicle: saline
[9] = dose: 240.0 mg/kg/injection, schedule: Q01DX005 (ip), vehicle: saline

## O=C(NC1(Sc2ccccc2)CC1)c1ccc(Cl)cc1
dose: 60.0 mg/kg/injection, schedule: Q01DX005 (ip), vehicle: Klucel (hydroxypropylcellulose) (HPC)
  survivor count: 6 of 6
dose: 120.0 mg/kg/injection, schedule: Q01DX005 (ip), vehicle: Klucel (hydroxypropylcellulose) (HPC)
  survivor count: 6 of 6
dose: 240.0 mg/kg/injection, schedule: Q01DX005 (ip), vehicle: Klucel (hydroxypropylcellulose) (HPC)
  survivor count: 1 of 6

## CC(=O)OCc1cc(=O)n(C)c2c3c4c(cc12)c(C)cc(=O)n4CO3
dose: 6.25 mg/kg/injection, schedule: Q03HX015 (ip), vehicle: Klucel (hydroxypropylcellulose) (HPC)
  T/C: 133 % of control
[1]
  T/C: 128 % of control
dose: 12.5 mg/kg/injection, schedule: Q03HX015 (ip), vehicle: Klucel (hydroxypropylcellulose) (HPC)
  T/C: 137 % of control
dose: 12.5 mg/kg/injection, schedule: Q06HX010 (ip), vehicle: Klucel (hydroxypropylcellulose) (HPC)
  T/C: 131 % of control
[2]
  T/C: 134 % of control
dose: 25.0 mg/kg/injection, schedule: Q01DX009 (ip), vehicle: Klucel (hydroxypropylcellulose) (HPC)
  T/C: 134 % of control
[3]
  T/C: 142 % of control
dose: 50.0 mg/kg/injection, schedule: Q03HX015 (ip), vehicle: Klucel (hydroxypropylcellulose) (HPC)
  survivor count: 3 of 8
dose: 50.0 mg/kg/injection, schedule: Q04DX002 (ip), vehicle: Klucel (hydroxypropylcellulose) (HPC)
  T/C: 134 % of control
dose: 100.0 mg/kg/injection, schedule: Q01DX001 (ip), vehicle: Klucel (hydroxypropylcellulose) (HPC)
  T/C: 131 and 137 % of control (2×)
[4]
  survivor count: 6 of 8
dose: 100.0 mg/kg/injection, schedule: Q03HX015 (ip), vehicle: Klucel (hydroxypropylcellulose) (HPC)
  survivor count: 0 of 8
dose: 100.0 mg/kg/injection, schedule: Q04DX002 (ip), vehicle: Klucel (hydroxypropylcellulose) (HPC)
  T/C: 146 % of control
dose: 100.0 mg/kg/injection, schedule: Q06HX010 (ip), vehicle: Klucel (hydroxypropylcellulose) (HPC)
  survivor count: 0 of 8
dose: 200.0 mg/kg/injection, schedule: Q01DX001 (ip), vehicle: Klucel (hydroxypropylcellulose) (HPC)
  T/C: 135 and 146 % of control
[5]
  survivor count: 0 of 8
dose: 200.0 mg/kg/injection, schedule: Q01DX009 (ip), vehicle: Klucel (hydroxypropylcellulose) (HPC)
  survivor count: 0 of 8
dose: 200.0 mg/kg/injection, schedule: Q06HX010 (ip), vehicle: Klucel (hydroxypropylcellulose) (HPC)
  survivor count: 0 of 8
dose: 400.0 mg/kg/injection, schedule: Q01DX001 (ip), vehicle: Klucel (hydroxypropylcellulose) (HPC)
  T/C: 137 % of control [4 of 6 alive]
dose: 400.0 mg/kg/injection, schedule: Q04DX002 (ip), vehicle: Klucel (hydroxypropylcellulose) (HPC)
  survivor count: 8 of 8
dose: 600.0 mg/kg/injection, schedule: Q01DX001 (ip), vehicle: Klucel (hydroxypropylcellulose) (HPC)
  survivor count: 0 of 6

## CCCCCCCCCCCCCCCC[As](CCCCCCCCCCCCCCCC)SC1OC(COC(C)=O)C(OC(C)=O)C(OC(C)=O)C1OC(C)=O (stereo not drawn)
dose: 50.0 mg/kg/injection, schedule: Q01DX009 (ip), vehicle: saline with Tween-80
  T/C: 125 % of control
[6]
  survivor count: 3 of 6
[7]
  survivor count: 0 of 6

## CC(=O)Nc1cccc(N=Cc2ccc[nH]2)c1
dose: 400.0 mg/kg/injection, schedule: Q04DX003 (ip), vehicle: Klucel (hydroxypropylcellulose) (HPC)
  survivor count: 3 of 6

## CN=C(N)c1ccc(N=C(N)c2ccc(-c3ccc(C(N)=Nc4ccc(C(N)=NC)cc4)cc3)cc2)cc1
dose: 5.3 mg/kg/injection, schedule: Q01DX009 (ip), vehicle: saline
  T/C: 131 % of control
[8]
  T/C: 140 % of control
dose: 12.0 mg/kg/injection, schedule: Q01DX009 (ip), vehicle: saline
  T/C: 140 % of control

## NC(Cc1cc(I)c(Oc2cc(I)c(O)c(I)c2)c(I)c1)C(=O)O (stereo not drawn)
dose: 4.0 mg/kg/injection, schedule: Q01DX009 (ip), vehicle: saline
  survivor count: 6 of 6
[8]
  survivor count: 6 of 6
dose: 16.0 mg/kg/injection, schedule: Q01DX009 (ip), vehicle: saline
  survivor count: 6 of 6
dose: 32.0 mg/kg/injection, schedule: Q01DX009 (ip), vehicle: saline
  survivor count: 6 of 6
dose: 64.0 mg/kg/injection, schedule: Q01DX009 (ip), vehicle: saline
  survivor count: 6 of 6
dose: 128.0 mg/kg/injection, schedule: Q01DX009 (ip), vehicle: saline
  survivor count: 6 of 6

## NN1CCCC1
dose: 400.0 mg/kg/injection, schedule: Q04DX003 (ip), vehicle: saline
  survivor count: 4 of 6

## Cc1ccc(NC(=O)Oc2cc(C)c(Cl)c(C)c2Cl)c([N+](=O)[O-])c1
[7]
  survivor count: 5 of 6

## CCOC(=O)c1conc1C
dose: 100.0 mg/kg/injection, schedule: Q01DX009 (ip), vehicle: saline
  survivor count: 1 of 6
dose: 200.0 mg/kg/injection, schedule: Q01DX009 (ip), vehicle: saline
  survivor count: 0 of 6

## CC(C)C(=O)N1CCCCCCN1C(=O)C(C)C
dose: 400.0 mg/kg/injection, schedule: Q01DX009 (ip), vehicle: Klucel (hydroxypropylcellulose) (HPC)
  survivor count: 0 of 6

## COC(=O)c1nc(=S)[nH]c(C(=O)OC)c1C(=O)c1cccnc1
[9]
  survivor count: 2 of 6

## CCN(CC)CCOC12CC3CC(CC(C3)C1)C2
[4]
  survivor count: 0 of 6
[5]
  survivor count: 0 of 6

## CCOc1ccc(Cc2nc3c([nH]2)c(=O)n(C)c(=O)n3C)cc1OCC
dose: 100.0 mg/kg/injection, schedule: Q04DX003 (ip), vehicle: saline with Tween-80
  survivor count: 6 of 6
dose: 400.0 mg/kg/injection, schedule: Q04DX003 (ip), vehicle: saline with Tween-80
  survivor count: 6 of 6

## CN(C)CCN(C)CC(C)(C)C(=O)/C=C/c1ccc(Cl)c(Cl)c1
dose: 30.0 mg/kg/injection, schedule: Q01DX005 (ip), vehicle: saline
  T/C: 127 % of control
dose: 60.0 mg/kg/injection, schedule: Q01DX005 (ip), vehicle: saline
  T/C: 104, 115, 117 % of control (2×)
dose: 120.0 mg/kg/injection, schedule: Q01DX005 (ip), vehicle: saline
  survivor count: 0 of 6
[9]
  survivor count: 0 of 6

## OC(CC1CCCCN1)c1ccccc1 (stereo not drawn)
[6]
  survivor count: 0 of 6
[7]
  survivor count: 0 of 6

## NC(=S)N/N=C\C(=O)c1ccccc1O
dose: 37.5 mg/kg/injection, schedule: Q01DX009 (ip), vehicle: saline with Tween-80
  T/C: 87, 93 [5 of 6 alive], 110, 134 % of control
dose: 75.0 mg/kg/injection, schedule: Q01DX009 (ip), vehicle: saline with Tween-80
  survivor count: 6 of 6

## CCC1(O)CC(OC2CC(N(C)C)C(OC3CC(O)C(OC4CC(O)C(O)C(C)O4)C(C)O3)C(C)O2)c2c(cc3c(c2O)C(=O)c2c(O)ccc(O)c2C3=O)C1C(=O)OC (stereo not drawn)
dose: 50.0 mg/kg/injection, schedule: Q04DX003 (ip), vehicle: Klucel (hydroxypropylcellulose) (HPC)
  T/C: 134 % of control

## O=C1C(F)=C(F)C(=O)C2(F)CC=CCC12F (stereo not drawn)
[1]
  survivor count: 0 of 6
[2]
  survivor count: 0 of 6
[3]
  survivor count: 0 of 6
dose: 50.0 mg/kg/injection, schedule: Q01DX005 (ip), vehicle: Klucel + Tween-80
  survivor count: 0 of 6
dose: 100.0 mg/kg/injection, schedule: Q01DX005 (ip), vehicle: Klucel + Tween-80
  survivor count: 0 of 6
dose: 200.0 mg/kg/injection, schedule: Q01DX005 (ip), vehicle: Klucel + Tween-80
  survivor count: 0 of 6

## O=C1C=C(N2CC2)C(=O)C(N2CC2)=C1N1CC1
dose: 0.02 mg/kg/injection, schedule: Q01DX005 (ip), vehicle: saline
  T/C: 144 and 146 % of control
dose: 0.32 mg/kg/injection, schedule: Q01DX005 (ip), vehicle: saline
  survivor count: 9 of 10 and 6 of 6

## Nc1cc([N+](=O)[O-])ccc1O
dose: 400.0 mg/kg/injection, schedule: Q01DX009 (ip), vehicle: saline
  survivor count: 3 of 6
dose: 600.0 mg/kg/injection, schedule: Q01DX009 (ip), vehicle: saline
  survivor count: 0 of 6

## CC(Nc1ncnc2c1CCc1ccccc1-2)C(=O)O (stereo not drawn)
dose: 400.0 mg/kg/injection, schedule: Q04DX002 (ip), vehicle: saline with Tween-80
  survivor count: 2 of 6

## NC(=NCc1ccncc1)N/N=C\c1ccnc2ccccc12
[9]
  survivor count: 0 of 6
